PubChem BioAssay AID504793, Drosophila RNAi Screening Center – 2011
In all, the deposit lists about 23,000 reagents; shown is a random part of those that have a named target and a result. Of all reagents, 62 (0.27%) are marked active. 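Calls come from follow-up tests whose scores are not deposited, so confirmed genes may have low counts here; counts are not normalised per plate.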 Raw values are not corrected between plates. Unmarked entries are inactive. Names joined by + are all predicted targets of the reagent.

- Aim: 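Genes required for cells to halt at G2/M after double-strand DNA breaks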 (primary screen)
- System: Drosophila S2R+ cells
- Reagent: long dsRNA against Drosophila genes, about 0.25 µg dsRNA per well
- Time to read-out: 4 days of dsRNA, then 4 hours of drug before read-out
- Treatment: doxorubicin 0.5 µM for 4 hours to cause double-strand breaks, in cells also given a low, harmless dose of dsRNA against nbs to sensitise the assay
- Read-out: 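Per-well count of mitotic cells stained for phospho-histone H3 after doxorubicin exposure, used as mitotic index; counts are raw and not normalised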
- Reading the numbers: mitotic cells: higher = more cells in mitosis, weaker G2 arrest
- Rule for the call: 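Genes are called active only when high mitotic counts were reproduced with independent dsRNAs and mitosis was checked for delay without damage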
- Meaning of the calls: active = confirmed in follow-up tests; inactive = not confirmed

no.	target gene	DRSC id	mitotic cells, replicate 1	mitotic cells, replicate 2
1	Jhbp12 (Juvenile hormone binding protein 12)	DRSC14621	8	
2	CG11192	DRSC06057	2	
3	CG11192	DRSC25902	10	
4	Nop10 (Nop10 ribonucleoprotein)	DRSC28427	6	
5	Fad2	DRSC11165	8	
6	Fad2	DRSC23579	9	
7	CG15657	DRSC04248	4	
8	CG31954	DRSC00580	6	
9	CG31954	DRSC28191	7	
10	CG14671	DRSC12257	4	
11	OXA1L (OXA1L mitochondrial inner membrane protein)	DRSC09672	8	
12	OXA1L (OXA1L mitochondrial inner membrane protein)	DRSC29571	9	
13	KLHL18 (Kelch like family member 18)	DRSC15496	8	
14	KLHL18 (Kelch like family member 18)	DRSC26629	7	
15	CG32536 + CG32537	DRSC20074		10
16	CG30127 (retired record)	DRSC05785	16	
17	CG30127 (retired record)	DRSC05786	30	
18	CG30127 (retired record)	DRSC23535	2	
19	CG42673	DRSC08989	8	
20	CG42673	DRSC08991	3	
21	CG42673	DRSC10177	6	
22	CG42673	DRSC10264	3	
23	CG42673	DRSC10353	3	
24	CG42673	DRSC10354	4	
25	CG42673	DRSC25788	7	
26	CG1602	DRSC06601	3	
27	r2d2	DRSC03014	14	
28	r2d2	DRSC29562	11	

3 entries already listed, arranged by “mitotic cells, replicate 1”, low to high:
target gene	DRSC id	mitotic cells, replicate 1	mitotic cells, replicate 2
CG15657	DRSC04248	4	
Fad2	DRSC11165	8	
Fad2	DRSC23579	9	

Additional reagents follow.
no.	target gene	DRSC id	mitotic cells, replicate 1	mitotic cells, replicate 2
29	CG18301	DRSC02662	6	
30	CG32295	DRSC23259	9	
31	Eig71Ef (Ecdysone-induced gene 71Ef)	DRSC11153	1	
32	oxt (peptide O-xylosyltransferase)	DRSC08522	7	
33	sinah (sina homologue)	DRSC09910	5	
34	sinah (sina homologue)	DRSC22181	11	
35	CG32811	DRSC22649	12	
36	Nup93-1 (Nucleoporin 93kD-1)	DRSC19344	5	
37	t-Grip128 (testis-specific gamma-tubulin ring protein 128)	DRSC07853	13	
38	t-Grip128 (testis-specific gamma-tubulin ring protein 128)	DRSC26796	7	
39	DIP1 (DISCO Interacting Protein 1)	DRSC20818	11	
40	DIP1 (DISCO Interacting Protein 1)	DRSC27354	11	
41	CG15252	DRSC17981	10	
42	CG15252	DRSC29645	4	
43	CG42335	DRSC14597	7	
44	CG42335	DRSC15892	8	
45	CG42335	DRSC25666	7	
